# Assay results reported in PubChem BioAssay AID720504 (National Center for Advancing Translational Sciences (NCATS), 2013).
# Chains of the proteins cited; added tags and fusions are not shown.
# UniProt P53350, whole entry, looked up: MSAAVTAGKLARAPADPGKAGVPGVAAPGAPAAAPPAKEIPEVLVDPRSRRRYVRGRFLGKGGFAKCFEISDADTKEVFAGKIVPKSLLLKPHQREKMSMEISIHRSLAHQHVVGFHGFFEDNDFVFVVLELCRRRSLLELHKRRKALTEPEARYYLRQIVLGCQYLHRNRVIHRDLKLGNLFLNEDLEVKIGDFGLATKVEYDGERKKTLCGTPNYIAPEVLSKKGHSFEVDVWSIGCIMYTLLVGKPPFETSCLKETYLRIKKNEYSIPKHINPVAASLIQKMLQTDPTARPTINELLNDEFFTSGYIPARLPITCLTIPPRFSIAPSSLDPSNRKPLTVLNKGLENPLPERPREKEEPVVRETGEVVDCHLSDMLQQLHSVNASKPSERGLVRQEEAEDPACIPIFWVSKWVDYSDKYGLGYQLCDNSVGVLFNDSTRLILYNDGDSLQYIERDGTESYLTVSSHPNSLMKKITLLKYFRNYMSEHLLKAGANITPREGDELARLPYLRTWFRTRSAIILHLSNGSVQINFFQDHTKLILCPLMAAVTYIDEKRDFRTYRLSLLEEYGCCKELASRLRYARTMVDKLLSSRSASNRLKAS
# The campaign covered roughly 360,000 compounds. About 10,000 (2.8%) were called active. The inconclusive results got no clear call from the source; some entries with a clear call stand among them for comparison. The call rests on the fitted dose curve; in most records, active means well fitted inhibition curve with a large enough effect; inconclusive means small, poorly fitted or top-dose-only effect; inactive means flat fitted curve, though single readings scatter. A potency beside an inconclusive call is a rough fit, not a confirmed value.
# Molecular target: Serine/threonine-protein kinase PLK1 (Homo sapiens) (UniProt P53350)
# Test: qHTS for Inhibitors of PLK1-PDB (polo-like kinase 1 - polo-box domain): Primary Screen; further: nearly all actives have a fitted effect of over 65% in size; on max response, negative = inhibition: series mostly up to about 57 µM
# Details: Plk1 PBD binding of FITC phosphopeptide, fluorescence polarization
# On the % scale 0 is the no-effect control and ±100 the full control effect; potency means the concentration at half of the fitted maximal effect.
SMILES,"max response, negative = inhibition",Potency
Oc1ccc(-c2n[nH]c(=S)n2-c2ccc3c(c2)OCCO3)c(O)c1,inactive: -27.4%,
Cc1[nH][nH]c(=O)c1C(c1c(C)[nH][nH]c1=O)c1cn(Cc2ccc(F)cc2)c2ccccc12,,"inconclusive: 37.7 µM [inhibitor, partial curve]"
CNS(=O)(=O)c1ccc2c(c1)[nH]c(=S)n2C,inactive: -13.6%,
O=CN/C=C/c1cc(O)ccc1O,,"inconclusive: 37.7 µM [inhibitor, single point]"
CC(C)N(C(=O)CSc1ccc(S(=O)(=O)N2CCCCC2)cn1)c1ccccc1,,"inconclusive: 21.2 µM [inhibitor, partial curve]"
O=C(/C=C/c1ccccc1[N+](=O)[O-])c1ccccc1Br,inconclusive: -34% [inhibitor],
Cc1occc1C(=O)NNC(=O)Nc1ccc(Cl)c(Cl)c1,,active: 6.7 µM
COc1cc2[nH]c(=S)nc(NCCC(C)C)c2cc1OC,,"inconclusive: 3.77 µM [inhibitor, full curve]"
Cc1ccc2c(CN3CCN(S(=O)(=O)c4ccccc4C(F)(F)F)CC3)cc(=O)oc2c1C,inactive: -11.2%,
O=C(CCCN1C(=O)CCC1=O)Nc1ccccc1F,inconclusive: -32% [inhibitor],
CCN1C(=O)c2cccc3c(N)ccc(c23)C1=O,,active: 2.99 µM
S=C1NC2=C(CCC/C2=C\c2ccccc2)C(c2ccccc2)N1 (stereo unspecified),,"inconclusive: 9.47 µM [inhibitor, partial curve]"
Cc1csc(NC(=O)CCCC(=O)O)c1-c1nc2ccccc2s1,,"inconclusive: 29.9 µM [inhibitor, single point]"
O=C(Cn1cc([N+](=O)[O-])cn1)NCc1cc2ccccc2[nH]1,inconclusive: -30.6% [inhibitor],
CC(=O)c1cccc(NC(=S)NC(=O)CC(C)(C)C)c1,inactive: -8.11%,
Cc1ccc(C(=O)/C=C/c2ccccc2[N+](=O)[O-])cc1,,active: 26.7 µM
O=C(Oc1cccc(N2C(=O)CCC2=O)c1)C1CC(=O)N(c2ccc(Br)cc2)C1 (stereo unspecified),,"inconclusive: 33.6 µM [inhibitor, single point]"
O/N=C/c1ccccc1OCc1ccc(Cl)cc1,inactive: -9.36%,
COc1cc2ccccc2cc1C(=O)Nc1ccccc1N1CCCC1,inactive: -0.531%,
COc1ccc(NC(=O)CN(C)C(=O)Cc2ccc3c(c2)CCC3)cc1,,"inconclusive: 21.2 µM [inhibitor, partial curve]"
O=C1NC(=S)S/C1=C/c1ccc(OC(=O)c2ccco2)cc1,,"inconclusive: 21.2 µM [inhibitor, partial curve]"
Cc1noc(C)c1CSc1ccc(Br)cc1,,"inconclusive: 23.8 µM [inhibitor, partial curve]"
N#CC1=C(N)Oc2n[nH]c(-c3cccnc3)c2C1c1ccc([N+](=O)[O-])o1 (stereo unspecified),,"inconclusive: 18.9 µM [inhibitor, partial curve]"

# Compounds from the list above that contain an aryl thioether with sulfur outside any ring (2):
SMILES,"max response, negative = inhibition",Potency
CC(C)N(C(=O)CSc1ccc(S(=O)(=O)N2CCCCC2)cn1)c1ccccc1,,"inconclusive: 21.2 µM [inhibitor, partial curve]"
Cc1noc(C)c1CSc1ccc(Br)cc1,,"inconclusive: 23.8 µM [inhibitor, partial curve]"

# (more compounds)

SMILES,"max response, negative = inhibition",Potency
N=C1N(c2ccccc2)C(=S)C(=Nc2ccccc2)N1c1ccccc1,,active: 26.7 µM
Cc1ccc2c(c1)C(O)(CC(=O)c1ccc(C)s1)C(=O)N2 (stereo unspecified),inconclusive: -27.1% [inhibitor],
COc1ccc2c(C)c(CC(=O)N3CCN(C(=O)C4COc5ccccc5O4)CC3)c(=O)oc2c1C (stereo unspecified),,active: 3.36 µM
N#Cc1ccc(C(C(=O)NC2CCCCC2)n2c(=O)c(-c3ccco3)nc3ccccc32)cc1 (stereo unspecified),,"inconclusive: 29.9 µM [inhibitor, partial curve]"
CCc1ccccc1NC(=S)NCC1CCN(c2ccc(OC)cc2)C1 (stereo unspecified),,"inconclusive: 23.8 µM [inhibitor, single point]"
COc1ccc(Cn2cnc3c(N)c(C)c(C)cc32)cc1,inconclusive: -31.3% [inhibitor],
COc1cccc(/C=C2\SC(=O)NC2=O)c1OCc1ccc(C(=O)O)cc1,,"inconclusive: 75.2 µM [inhibitor, single point]"
Cc1cc(C)c2nc(-c3ccccn3)cc(C(=O)N3CCCC3)c2c1,,"inconclusive: 21.2 µM [inhibitor, partial curve]"
Cc1cc(C)c2c(N)c(C(=O)N3CCN(c4ncccn4)CC3)sc2n1,,"inconclusive: 23.8 µM [inhibitor, partial curve]"
CC12CN3CC(C)(CN(C1)C3c1ccc(Cl)cc1Cl)C2=O (stereo unspecified),,"inconclusive: 37.7 µM [inhibitor, single point]"
O=c1cccccc1NCc1ccccc1,inactive: -9.1%,
CCOc1ccc(NC(=O)CC2SC(=O)N(c3ccccc3)C2=O)cc1 (stereo unspecified),,active: 9.47 µM
Cc1cc(C(=O)C(C)Sc2cccc[n+]2[O-])c(C)n1-c1ccc(Cl)cc1 (stereo unspecified),,"inconclusive: 18.9 µM [inhibitor, single point]"
CCc1nnc(NC(=O)CSc2nc3c(c(=O)n2-c2ccccc2OC)SCC3)s1,,"inconclusive: 29.9 µM [inhibitor, single point]"
O=C(CCc1nnc(COc2ccccc2)o1)NC1(c2ccccc2)CC1,inactive: -1.38%,
Cc1csc(NC(=O)CCS(=O)(=O)c2ccc(Br)cc2)n1,,"inconclusive: 29.9 µM [inhibitor, partial curve]"
COc1ccc([N+](=O)[O-])cc1N(CC(=O)N1CCOCC1)S(C)(=O)=O,,"inconclusive: 26.7 µM [inhibitor, single point]"
CCCNC(=O)C(Cc1ccc(I)cc1)NC(=O)c1ccc(C#N)cc1 (stereo unspecified),,"inconclusive: 23.8 µM [inhibitor, partial curve]"
CCC(C)(C)NC(=O)c1sccc1Oc1ccc(F)cc1[N+](=O)[O-],,"inconclusive: 26.7 µM [inhibitor, partial curve]"
CCc1ccccc1NC(=O)CN1CCN(C(=O)CNC(=O)c2ccc(-c3ccccc3)cc2)CC1,inactive: 3.26%,
CCc1cccc(NC(=O)CCS(=O)(=O)c2ccc(Br)cc2)c1,,active: 13.4 µM
CN(C)S(=O)(=O)c1cccc(COc2cccnc2[N+](=O)[O-])c1,,active: 29.9 µM
O=C1Oc2ccccc2C(=O)/C1=C/c1ccccc1O,,active: 2.67 µM
